From PubChem BioAssay AID274 (DTP/NCI, 2004) come the findings set out here.

The list shows only some results of the screen, not a fair sample: it gathers tests that were run many times, whatever their T/C, doses with no T/C, and many T/C values between a quarter and a half above the control. Other doses and runs of a compound stand elsewhere. T/C is the treated group as % of the vehicle group. Some doses have a count of surviving animals in place of a T/C: the source holds a T/C of zero for them, seemingly a mark for toxic or unscored doses. Some survivor counts are full or nearly so, which does not show that the dose was tolerated: survival well below the control is almost never listed, so the zero probably covers shortened survival too. Counts of survivors are from the toxicity check (mostly the fifth day) where no day follows; animals may have died later. Schedule codes are those of the source, read here as Q, the interval in days (D) or hours (H), X, the number of doses. Additions like (4×) count equal records among those shown. Some entries hold several experiments; the results are listed from low to high. For survival time, this PubChem deposit counts one and a half times the control or more as active, and values a quarter to a half above the control carry no call in these data; other NCI protocols may use other cut-offs. Some T/C values are followed by the survivors on the day toxicity was checked, most often the fifth; where none is given, no animal had died by that day. Numbered stars: 1 amine (or outer) side, 2 acyl side, 3 side chain; on linkers, the order of the positions; unused ones are H or OH. Bridge positions count the residues as written; N and C are the ends. Square brackets hold non-standard residues; d marks the D form. Peptide text beside a SMILES is read from it. I, II: the chains in the order shown. Actinocin(1to9) = Cc1c2oc3c(C)ccc(C(=O)[*:2])c3nc-2c(C(=O)[*:1])c(N)c1=O; NMeV = CN[CH](C(=O)O)C(C)C; Aze = O=C(O)[CH]1CCN1; Sar = CNCC(=O)O

In this test the test system is BDF1 mice, Lewis lung carcinoma iv, survival T/C. The experiment in a line: NCI In Vivo Anticancer Drug Screen. Data for tumor model Lewis Lung Carcinoma (intravenous) in B6D2F1 (BDF1) mice. As to conditions: T/C endpoint: median survival time, higher T/C = longer survival. As for the experimental part:
The antitumor activity of compounds was measured in mice bearing transplantable tumors. Survival or tumor size were measured and the results are expressed as the measurement made in the treated group (T) divided by the measurement made in the vehicle treated control group (C). The tumor model used in this assay is Lewis Lung Carcinoma (intravenous) in B6D2F1 (BDF1) mice

[1] abbreviates: dose: 100.0 mg/kg/injection, schedule: Q01DX009 (ip), vehicle: saline with Tween-80.
Setting [2] is: dose: 400.0 mg/kg/injection, schedule: Q01DX009 (ip), vehicle: saline with Tween-80.

Regarding `COc1ccc2[nH]c3c(c2c1)CCNC3CC(C)CCC=C(C)C` (centres undefined), the survivor count (dose: 200.0 mg/kg/injection, schedule: Q01DX009 (ip), vehicle: Klucel (hydroxypropylcellulose) (HPC)) is reported as 3 of 10.
On to `CC(C)CCCCCCCCCCCCC(=O)NCC(=O)NC1C(O)C(O)C(Nc2ncnc3nc[nH]c23)OC1C(O)CO` (centres undefined), for which the T/C (dose: 0.5 mg/kg/injection, schedule: Q01DX009 (ip), vehicle: Klucel (hydroxypropylcellulose) (HPC)) is 130 % of control. For the same compound, the survivor count was 9 of 10 (dose: 4.0 mg/kg/injection, schedule: Q01DX009 (ip), vehicle: Klucel (hydroxypropylcellulose) (HPC)) and 10 of 10 (dose: 8.0 mg/kg/injection, schedule: Q01DX009 (ip), vehicle: Klucel (hydroxypropylcellulose) (HPC)).
In the case of `O=C(NCCCCCCNC(=O)N1CC1)N1CC1`, the T/C (dose: 4.8 mg/kg/injection, schedule: Q01DX009 (ip), vehicle: saline) was 134 % of control. Besides, the survivor count (dose: 9.6 mg/kg/injection, schedule: Q01DX009 (ip), vehicle: saline) is listed as 10 of 10.
In the case of `CCOC(C)C(/C=N/NC(N)=S)=NNC(N)=S` (centres undefined), the T/C under setting [1] is 128 % of control [9 of 10 alive]. In addition, under setting [2], the survivor count is listed as 10 of 10.
Consider `O=C1CCCCC1C(=O)C(F)(F)F` (centres undefined), for which the survivor count is listed as 9 of 10 (dose: 100.0 mg/kg/injection, schedule: Q01DX009 (ip), vehicle: saline + Tween-80 + alcohol) and 2 of 10 (dose: 200.0 mg/kg/injection, schedule: Q01DX009 (ip), vehicle: saline + Tween-80 + alcohol).
As to `Cc1ccccc1N(CC1CO1)CC1CO1` (centres undefined), the survivor count (dose: 400.0 mg/kg/injection, schedule: Q01DX009 (ip), vehicle: saline) was 5 of 10.
Consider `[N-]=[N+]=CC(=O)CCC(N)C(=O)O` (centres undefined), for which the T/C (dose: 0.2 mg/kg/injection, schedule: Q01DX009 (ip), vehicle: saline) was 128 % of control. Further, the survivor count was 10 of 10 (dose: 0.39 mg/kg/injection, schedule: Q01DX009 (ip), vehicle: saline); 10 of 10 (dose: 0.78 mg/kg/injection, schedule: Q01DX009 (ip), vehicle: saline); 10 of 10 (dose: 1.56 mg/kg/injection, schedule: Q01DX009 (ip), vehicle: saline); 8 of 10 (dose: 3.13 mg/kg/injection, schedule: Q01DX009 (ip), vehicle: saline).
Take `CCCCOCN(COCCCC)C(C)Cc1ccccc1` (centres undefined): the survivor count under setting [2] is on record as 7 of 10.
On to `NC(=O)c1[nH]nc(C2OC(CO)C(O)C2O)c1O` (centres undefined), for which the survivor count (dose: 1250.0 micrograms/kg/injection, schedule: Q01DX009 (ip), vehicle: water) is given as 10 of 10.
Turning to `O=C(Nc1cccc(Cl)c1)ON1C(=O)C2C(C1=O)C1(Cl)C(Cl)C(Cl)C2(Cl)C1(Cl)Cl` (centres undefined), the survivor count is, setting by setting: under setting [1], 8 of 10; under setting [2], 1 of 10.
Consider `CCC1(O)CC2CN(CCc3c([nH]c4ccccc34)C(C(=O)OC)(c3cc4c(cc3OC)N(C)C3C(O)(C(=O)NCCSSCCNC(=O)C5(O)C(O)C6(CC)C=CCN7CCC8(c9cc(C%10(C(=O)OC)CC%11CN(CCc%12c%10[nH]c%10ccccc%12%10)CC(O)(CC)C%11)c(OC)cc9N(C)C58)C76)C(O)C5(CC)C=CCN6CCC43C65)C2)C1` (centres undefined), for which the survivor count is recorded as 10 of 10 (dose: 1.08 mg/kg/injection, schedule: Q01DX009 (ip), vehicle: saline); 8 of 10 (dose: 1.8 mg/kg/injection, schedule: Q01DX009 (ip), vehicle: saline); 6 of 10 (dose: 3.0 mg/kg/injection, schedule: Q01DX009 (ip), vehicle: saline).
As to `CC[As](=O)(O)CC`, the survivor count (dose: 50.0 mg/kg/injection, schedule: Q01DX009 (ip), vehicle: saline) was 10 of 10.
With `Cc1c2oc3c(C)ccc(C(=O)NC4C(=O)NC(C(C)C)C(=O)N5CCCC5C(=O)N(C)CC(=O)N(C)C(C(C)C)C(=O)OC4C)c3nc-2c(C(=O)NC2C(=O)NC(C(C)C)C(=O)N3CCC3C(=O)N(C)CC(=O)N(C)C(C(C)C)C(=O)OC2C)c(N)c1=O` (centres undefined) (I: TV[Aze][Sar][NMeV] / II: TVP[Sar][NMeV]; ester I:1-I:C, II:1-II:C; linker I:N-II:N via Actinocin(1to9); configuration not given here), the survivor count (dose: 150.0 micrograms/kg/injection, schedule: Q01DX009 (ip), vehicle: saline + alcohol) is 10 of 10; the survivor count (dose: 300.0 micrograms/kg/injection, schedule: Q01DX009 (ip), vehicle: saline + alcohol) is given as 10 of 10; the survivor count (dose: 600.0 micrograms/kg/injection, schedule: Q01DX009 (ip), vehicle: saline + alcohol) is 3 of 10; the survivor count (dose: 900.0 micrograms/kg/injection, schedule: Q04DX003 (ip), vehicle: saline + alcohol) was 8 of 8; the survivor count (dose: 1200.0 micrograms/kg/injection, schedule: Q01DX009 (ip), vehicle: saline + alcohol) is recorded as 1 of 10; the survivor count (dose: 1250.0 micrograms/kg/injection, schedule: Q04DX003 (ip), vehicle: saline + alcohol) is recorded as 8 of 8. Besides, the survivor count is, setting by setting: (dose: 1500.0 micrograms/kg/injection, schedule: Q04DX003 (ip), vehicle: saline + alcohol) 8 of 8; (dose: 1800.0 micrograms/kg/injection, schedule: Q01DX001 (ip), vehicle: saline + alcohol) 5 of 8; (dose: 3000.0 micrograms/kg/injection, schedule: Q01DX001 (ip), vehicle: saline + alcohol) 0 of 8. Moreover, the T/C (dose: 750.0 micrograms/kg/injection, schedule: Q04DX003 (ip), vehicle: saline + alcohol) was 130 % of control.
`CCC(=O)OCC1OC(n2cnc3c(=S)nc(N)[nH]c32)C(OC(=O)CC)C1OC(=O)CC` (centres undefined): the survivor count runs as follows: (dose: 12.5 mg/kg/injection, schedule: Q01DX009 (ip), vehicle: Klucel (hydroxypropylcellulose) (HPC)) 10 of 10; (dose: 25.0 mg/kg/injection, schedule: Q01DX009 (ip), vehicle: Klucel (hydroxypropylcellulose) (HPC)) 10 of 10; (dose: 50.0 mg/kg/injection, schedule: Q01DX009 (ip), vehicle: Klucel (hydroxypropylcellulose) (HPC)) 10 of 10; (dose: 100.0 mg/kg/injection, schedule: Q01DX009 (ip), vehicle: Klucel (hydroxypropylcellulose) (HPC)) 10 of 10.
`CC(=O)Nc1ccc(Nc2ccc(C(=C3C=CC(=[N+](C)CCC#N)C=C3)c3ccc(N(C)CCC#N)cc3)cc2)cc1`: the survivor count is 10 of 10 (dose: 50.0 mg/kg/injection, schedule: Q01DX009 (ip), vehicle: saline with Tween-80); 4 of 10 under setting [1]; 0 of 10 (dose: 200.0 mg/kg/injection, schedule: Q01DX009 (ip), vehicle: saline with Tween-80); 0 of 10 under setting [2].
On to `C/C=C/C=C/c1cc2cc3c(c(O)c2c(=O)[nH]1)C1(CC3)C(O)=c2c(=O)c3c(=O)cc(OC)c(=O)c=3c(=O)c2=C1O` (centres undefined), for which the survivor count runs as follows: (dose: 0.12 mg/kg/injection, schedule: Q01DX009 (ip), vehicle: DMSO) 9 of 10; (dose: 0.5 mg/kg/injection, schedule: Q01DX009 (ip), vehicle: DMSO) 1 of 10; (dose: 1.0 mg/kg/injection, schedule: Q01DX009 (ip), vehicle: DMSO) 0 of 10 and 8 of 10; (dose: 2.0 mg/kg/injection, schedule: Q01DX009 (ip), vehicle: DMSO) 0 of 10 and 1 of 10.
In the case of `C=C1C(=O)C2=CC1CCC(=O)C1(C)CCC(OC(C)=O)C(C)(C)C1CC2O` (centres undefined), the survivor count (dose: 120.0 mg/kg/injection, schedule: Q01DX009 (ip), vehicle: Klucel (hydroxypropylcellulose) (HPC)) is listed as 0 of 10.
With `OCCN1CCN(CC/C=C2/c3ccccc3Sc3ccc(Cl)cc32)CC1`, the survivor count (dose: 25.0 mg/kg/injection, schedule: Q01DX009 (ip), vehicle: saline) is 9 of 10.
Take `O=C(N/N=C/c1ccccc1O)c1ccncc1`: the survivor count (dose: 450.0 mg/kg/injection, schedule: Q01DX007 (ip), vehicle: Klucel (hydroxypropylcellulose) (HPC)) was 7 of 7.
Take `CS(=O)(=O)OCCCNCCCOS(C)(=O)=O`: the survivor count by setting is: (dose: 20.0 mg/kg/injection, schedule: Q01DX009 (ip), vehicle: saline) 10 of 10; (dose: 40.0 mg/kg/injection, schedule: Q01DX009 (ip), vehicle: saline) 10 of 10; (dose: 80.0 mg/kg/injection, schedule: Q01DX009 (ip), vehicle: saline) 10 of 10 (2×); (dose: 160.0 mg/kg/injection, schedule: Q01DX009 (ip), vehicle: saline) 10 of 10; (dose: 320.0 mg/kg/injection, schedule: Q01DX009 (ip), vehicle: saline) 10 of 10.
